The results are deposited in PubChem (AID504749; NCATS, 2011).

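Malaria parasite (P. falciparum) lines kept in red blood cells; parasite DNA is measured by SYBR Green fluorescence after lysis, 72 h after compound addition.
Each compound was titrated across a series from about 0.000037 to 29 µM.
The number is the fitted AC50, the concentration giving a half-maximal change in signal; a lower value means higher potency, whether the curve shows a decrease or an increase.
Calls follow the curve class and fit quality: every row here is inconclusive, covering signal-raising curves and weak, poorly fitted, partial or highest-dose-only inhibition curves.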

Values are in µM.
All entries here are filed as inconclusive.
Only part of the assay is shown, chiefly results filed as inconclusive.
Potencies fitted to partial, single-point or poorly fitting curves are rough.
The first word of each remark tells which way the curve ran; it can be opposite to the aim of the assay.

| # | compound | setting | fitted potency (µM) | curve as filed |
|---|---|---|---|---|
| 1 | `CCn1cc(C(=O)O)c(=O)c2cc(F)c(N3CCNCC3)nc21` | TAB109 | 11.22 | inhibitor, partial curve, poor fit |
| 2 | `CCn1cc(C(=O)O)c(=O)c2cc(F)c(N3CCNCC3)nc21` | CP252 | 11.22 | inhibitor, partial curve, poor fit |
| 3 | `CCn1cc(C(=O)O)c(=O)c2cc(F)c(N3CCNCC3)nc21` | Dd2 | 10 | inhibitor, single point |
| 4 | `CCn1cc(C(=O)O)c(=O)c2cc(F)c(N3CCNCC3)nc21` | W2 | 7.208 | inhibitor, single point |
| 5 | `CCn1cc(C(=O)O)c(=O)c2cc(F)c(N3CCNCC3)nc21` | P93_24 | 7.943 | inhibitor, single point |
| 6 | `CCn1cc(C(=O)O)c(=O)c2cc(F)c(N3CCNCC3)nc21` | CP291 | 8.087 | inhibitor, partial curve, poor fit |
| 7 | `CCn1cc(C(=O)O)c(=O)c2cc(F)c(N3CCNCC3)nc21` | CP269 | 7.208 | inhibitor, partial curve, poor fit |
| 8 | `CCn1cc(C(=O)O)c(=O)c2cc(F)c(N3CCNCC3)nc21` | 7G8 | 5.012 | inhibitor, partial curve, poor fit |
| 9 | `CCn1cc(C(=O)O)c(=O)c2cc(F)c(N3CCNCC3)nc21` | DFO2036 | 3.981 | inhibitor, partial curve |
| 10 | `CCn1cc(C(=O)O)c(=O)c2cc(F)c(N3CCNCC3)nc21` | CP260 | 3.548 | inhibitor, partial curve |
| 11 | `CCn1cc(C(=O)O)c(=O)c2cc(F)c(N3CCNCC3)nc21` | CP237 | 3.548 | inhibitor, single point |
| 12 | `CCn1cc(C(=O)O)c(=O)c2cc(F)c(N3CCNCC3)nc21` | CP256 | 3.548 | inhibitor, single point |
| 13 | `CCn1cc(C(=O)O)c(=O)c2cc(F)c(N3CCNCC3)nc21` | AS120 | 11.22 | inhibitor, partial curve, poor fit |
| 14 | `CC(C)NC(C)C` | CP335 | 4.256 | inhibitor, partial curve, poor fit |
| 15 | `CC(C)NC(C)C` | CP315 | 2.133 | inhibitor, single point |
| 16 | `CC(C)NC(C)C` | P94_40 | 17.78 | inhibitor, single point |
| 17 | `ClC1=C(Cl)C2(Cl)C(CBr)CC1(Cl)C2(Cl)Cl` (configuration not stated) | 3D7 | 17.78 | inhibitor, single point |
| 18 | `ClC1=C(Cl)C2(Cl)C(CBr)CC1(Cl)C2(Cl)Cl` (configuration not stated) | CP260 | 17.78 | inhibitor, single point |
| 19 | `ClC1=C(Cl)C2(Cl)C(CBr)CC1(Cl)C2(Cl)Cl` (configuration not stated) | ICS | 17.78 | inhibitor, single point |
| 20 | `ClC1=C(Cl)C2(Cl)C(CBr)CC1(Cl)C2(Cl)Cl` (configuration not stated) | CP335 | 12 | inhibitor, partial curve, poor fit |
| 21 | `ClC1=C(Cl)C2(Cl)C(CBr)CC1(Cl)C2(Cl)Cl` (configuration not stated) | 7G8 | 12.59 | inhibitor, partial curve, poor fit |
| 22 | `COc1ccc(/C=C/C(=O)O)cc1` | ATS95 | 17.78 | inhibitor, single point |
| 23 | `C[C@H]1OC(OC2C(O)[C@@H](O)C(OC3C(O)[C@@H](O)C(O)O[C@@H]3CO)O[C@@H]2CO)[C@H](O)C(O)C1N[C@H]1C=C(CO)[C@@H](O)[C@H](O)C1O` (some centres not stated) | PC26 | 15.1 | inhibitor, partial curve, poor fit |
| 24 | `O=C1C(O)=C(O)C(=O)C(O)=C1O` | CP297 | 4.776 | inhibitor, partial curve, poor fit |
| 25 | `O=C1C(O)=C(O)C(=O)C(O)=C1O` | ICS | 11.22 | inhibitor, single point |
| 26 | `O=C1C(O)=C(O)C(=O)C(O)=C1O` | W2 | 0.0024 | inhibitor, full curve, poor fit |
| 27 | `O=C1C(O)=C(O)C(=O)C(O)=C1O` | CP286 | 17.78 | inhibitor, single point |
| 28 | `CCN(CC)CCOC(=O)C(c1ccccc1)c1ccccc1` | GB4 | 15.1 | inhibitor, partial curve |
| 29 | `CCN(CC)CCOC(=O)C(c1ccccc1)c1ccccc1` | Dd2 | 0.0708 | inhibitor, full curve, poor fit |
| 30 | `CCN(CC)CCOC(=O)C(c1ccccc1)c1ccccc1` | 7G8 | 7.08 | inhibitor, partial curve |
| 31 | `CC/C=C\C/C=C\C/C=C\C/C=C\C/C=C\C/C=C\CCC(=O)O` | ECU | 17.78 | inhibitor, single point |
| 32 | `CN(C)CCN(Cc1ccccc1)c1ccccn1` | ATS189 | 3.548 | inhibitor, full curve, poor fit |
| 33 | `CN(C)CCN(Cc1ccccc1)c1ccccn1` | CP291 | 8.492 | inhibitor, partial curve, poor fit |
| 34 | `CN(C)CCN(Cc1ccccc1)c1ccccn1` | AA1029 | 7.08 | inhibitor, partial curve |
| 35 | `CCCC(=O)Nc1c(I)cc(I)c(C[C@H](CC)C(=O)O)c1I` | DIV14 | 2.133 | inhibitor, partial curve, poor fit |
| 36 | `CCCC(=O)Nc1c(I)cc(I)c(C[C@H](CC)C(=O)O)c1I` | CP260 | 10 | inhibitor, single point |
| 37 | `CCCC(=O)Nc1c(I)cc(I)c(C[C@H](CC)C(=O)O)c1I` | W2 | 0.0005 | activator |

The last 4 entries again:

{"compound": "CN(C)CCN(Cc1ccccc1)c1ccccn1", "setting": "AA1029", "fitted potency (µM)": "7.08", "curve as filed": "inhibitor, partial curve"}
{"compound": "CCCC(=O)Nc1c(I)cc(I)c(C[C@H](CC)C(=O)O)c1I", "setting": "DIV14", "fitted potency (µM)": "2.133", "curve as filed": "inhibitor, partial curve, poor fit"}
{"compound": "CCCC(=O)Nc1c(I)cc(I)c(C[C@H](CC)C(=O)O)c1I", "setting": "CP260", "fitted potency (µM)": "10", "curve as filed": "inhibitor, single point"}
{"compound": "CCCC(=O)Nc1c(I)cc(I)c(C[C@H](CC)C(=O)O)c1I", "setting": "W2", "fitted potency (µM)": "0.0005", "curve as filed": "activator"}